These are yes or no findings as the source states them, for the method shown. In cells and extracts the contact can be indirect. Some results given as binding are weak or reduced against the parent protein; the word gives no strength.
Target: T1, Type II cGMP-dependent protein kinase (PKG II) (UniProt Q13237)
T1 sequence: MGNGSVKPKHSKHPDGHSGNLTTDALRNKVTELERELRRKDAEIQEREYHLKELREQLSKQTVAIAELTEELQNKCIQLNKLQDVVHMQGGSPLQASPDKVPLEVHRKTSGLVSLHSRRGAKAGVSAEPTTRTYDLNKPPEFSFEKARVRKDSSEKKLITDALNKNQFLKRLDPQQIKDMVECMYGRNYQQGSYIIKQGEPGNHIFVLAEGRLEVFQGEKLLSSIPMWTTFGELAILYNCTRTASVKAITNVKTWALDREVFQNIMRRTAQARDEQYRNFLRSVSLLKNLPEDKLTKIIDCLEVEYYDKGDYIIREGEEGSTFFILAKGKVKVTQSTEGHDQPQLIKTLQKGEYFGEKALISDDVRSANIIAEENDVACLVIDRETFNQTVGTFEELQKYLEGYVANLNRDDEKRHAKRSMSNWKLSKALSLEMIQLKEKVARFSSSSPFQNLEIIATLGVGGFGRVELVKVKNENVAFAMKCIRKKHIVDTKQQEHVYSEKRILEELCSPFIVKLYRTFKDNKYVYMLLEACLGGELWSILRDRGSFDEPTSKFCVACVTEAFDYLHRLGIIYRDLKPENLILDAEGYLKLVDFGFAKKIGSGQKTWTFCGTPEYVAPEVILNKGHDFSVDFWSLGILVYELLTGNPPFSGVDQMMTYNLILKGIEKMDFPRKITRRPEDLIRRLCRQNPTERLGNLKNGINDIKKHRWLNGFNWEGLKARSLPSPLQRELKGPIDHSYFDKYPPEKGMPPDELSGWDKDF
Assay: co-IP; AGS cells infected with Ad-PKG II, serum-starved o/n, 250 uM 8-pCPT-cGMP for 1 h, EGF (100 ng/ml) for 5 min; lysate immunoprecipitated with anti-PKG II antibody or isotype-matched IgG and probed with anti-EGFR antibody; the contrary experiment (IP anti-EGFR, probed with anti-PKG II) also performed

binding: binds
Substance: epidermal growth factor receptor (EGFR) (from UniProt P00533 25-1210)
